The test deals with T1, Gal3 Peptide 2 (human).
T1 sequence (peptide): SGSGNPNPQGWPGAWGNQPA
Put plainly: peptide ELISA: Gal3 peptide coated on the plate, antibody (hIgG4 S228P) at 5 µg/mL, anti-human IgG-HRP, A450 (Example 18). (In general: ELISA stands for enzyme-linked immunosorbent assay.)

No constants are given. Whether binding was seen depends on the method and setting. Some entries that bind do so weakly or less than the wild type.

B1: F849C.8H3 (antibody, human IgG4 S228P, kappa, V domains shown)
VH: QVTLKESGPGILQPSQTLSLTCSFSGFSLSTFGMGVGWIRQPSGKGLEWLAHIWWDDDKHYNPALKSRLTISKDTSKNQVFLRIANVDTADNATYYCARIDYGDYVGFAYWGQGTLVTVSA
VL: DIGMRQAAFSNPVTLGTSASISCRSSKSLLYSNGITYLYWFLQKPGQSPQLLIYQMSNLASGVPDRFSSSGSGTDFTLRISRVEADDVGVYYCAQNLELPWTFGGGTKLEIKR
As for B1, the binding result is reported as “binds”.

The record behind these values is patent US20230094463A1, “ANTIBODIES THAT DISRUPT THE INTERACTION OF GAL3 AND INSULIN RECEPTOR OR INTEGRINS AND METHODS OF USE THEREOF” (TrueBinding, Inc., priority 2019, published 2023).
